Converted amounts (≈) assume the structure as drawn.
System: Escherichia coli ATCC 35218
Assay: Antimicrobial susceptibility assay, E. coli
Format: cell-based
Conditions: ATCC35218, read-out: E. coli MIC
Procedure, shortened: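 Modified CLSI broth dilution with test compound dissolved in DMSO and serially diluted in 20% DMSO/saline, in duplicate. Inoculum prepared to target CFU/mL. Plates read at 630 nm before and after incubation. IC50 from percent growth vs concentration. MIC is the lowest concentration with no detectable growth. MBC is the lowest concentration giving no growth when 5 μL from clear wells is subcultured on agar. Ciprofloxacin control.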

**Q.** For `O=C(O)c1cn(C2CC2)c2cc(N3CCNCC3)c(F)cc2c1=O` [Ciprofloxacin, ciprofloxacin, reference compound], which MIC is on record?
**A.** 0.016 µg/mL (≈ 0.0483 µM)

From paper PMC3709443 (Natural product communications, 2009)
